# Experimental data reported in publication PMC7819943, “Rice protein-binding microarrays: a tool to detect cis-acting elements near promoter regions in rice”.
# By UniProt entry, the sequences of proteins in these tests, tags left out.
# UniProt Q0JBA9, entry or part of it: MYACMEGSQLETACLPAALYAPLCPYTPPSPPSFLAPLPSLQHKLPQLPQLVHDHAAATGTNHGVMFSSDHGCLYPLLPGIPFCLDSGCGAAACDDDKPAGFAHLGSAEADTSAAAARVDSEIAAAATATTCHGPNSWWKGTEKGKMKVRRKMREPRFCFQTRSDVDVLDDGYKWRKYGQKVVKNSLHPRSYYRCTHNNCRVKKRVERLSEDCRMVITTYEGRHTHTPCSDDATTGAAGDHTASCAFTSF
# Some of the results follow.
# Target: OsWRKY34 (Oryza sativa, UniProt Q0JBA9 1-250)
# Experiment: protein-binding microarray (RPBM); PBS, 2% BSA, 51.3 ng/ul salmon testes DNA, 50 uM zinc acetate, 200 nM TF, 25 C, 1 h; high values mean tight binding
# Conditions: protein: recombinant; tags: N-terminal polyhistidine and DsRed monomer fusion (pET32a); label: CyDye5-dUTP incorporated in the synthesized complementary strand; 3' TTTTT single-stranded linker to array surface; dsDNA, one strand shown
# Procedure, shortened: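 Transcription factors were each fused at the N-terminus to a polyhistidine tag plus DsRed and expressed in E. coli BL21-CodonPlus before Ni–NTA purification. Binding to a double-stranded custom Agilent array was carried out with 200 nM protein at 25 °C for 1 h in PBS, 2% BSA, salmon testes DNA and 50 µM zinc acetate. The binding signal is per-feature fluorescence intensity, in arbitrary units, on an Axon 4000B scanner.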
row,Sequence,binding signal
1,TGCGTTGGCGGTGGGCTCTGTGTGCGGGTTCCTGATGATGCGGAGTCACCTAGTGCAG,8040 fluorescence intensity (a.u.)
2,GGTCCACCTTTTTTATTTTTGTTTGCTAATTATAATATCACGGAGTCACCTAGTGCAG,8480 fluorescence intensity (a.u.)
3,GCTATTCCTAGCTGGTCCATACATTTTTTGTTGCTAAAGCCGGAGTCACCTAGTGCAG,8140 fluorescence intensity (a.u.)
4,GTGGACGACGACCTCGTTTCGCTGCAGTCTTGCGCGCGCGCGGAGTCACCTAGTGCAG,8070 fluorescence intensity (a.u.)
5,ATTCTTTCTGAACCGTTTTCCGGAAAACCAGAGCTGTATACGGAGTCACCTAGTGCAG,9560 fluorescence intensity (a.u.)
6,TGGGTTCTATATTGCCACGCTCGAGATTTGATTCAAACACCGGAGTCACCTAGTGCAG,8790 fluorescence intensity (a.u.)
7,GTATCTATAGCTCTCTAATATATTGTCTCGTTTTTCTCTACGGAGTCACCTAGTGCAG,12700 fluorescence intensity (a.u.)
8,CCATGGCGTGTAGCTAGCTAGTTTCTTTCTTTGCACTTCTCGGAGTCACCTAGTGCAG,9760 fluorescence intensity (a.u.)
9,TCACACGTTTCATTGACGTTTCCTAGCATCCGACCTCTCTCGGAGTCACCTAGTGCAG,9620 fluorescence intensity (a.u.)
10,ATCTTCTCAGATGAGATGCCCGTGCATGCATGCTGATTGTCGGAGTCACCTAGTGCAG,9810 fluorescence intensity (a.u.)
11,TTAATATCACTATCTCCACTTCAGTCGTTTTAATCTTTTTCGGAGTCACCTAGTGCAG,10800 fluorescence intensity (a.u.)
12,GTGTGGGTTGACCGAATTGGATCAAGATTATTGCGGGAGGCGGAGTCACCTAGTGCAG,9640 fluorescence intensity (a.u.)
13,TTATTATTTATTTTATTTGTGACTTACTTTATTATCCAAACGGAGTCACCTAGTGCAG,8350 fluorescence intensity (a.u.)
14,CTGGATTATTAGCTTTTTGTTAGTTGTTAGCCACCCAATACGGAGTCACCTAGTGCAG,10100 fluorescence intensity (a.u.)
15,ACCCACCCACCCGGCACCCACCCACCCACTACCTCTCTCTCGGAGTCACCTAGTGCAG,11900 fluorescence intensity (a.u.)
16,TGGATGAGACCGACCCTTGTTTGGCTTGTTGTTCATAGTTCGGAGTCACCTAGTGCAG,9260 fluorescence intensity (a.u.)
17,ACAACCTCTGCGCAACGATCATAAATTTCTACCACAACTTCGGAGTCACCTAGTGCAG,8090 fluorescence intensity (a.u.)
18,GGATCTACTGGGTGGGAGGAGCGCGGCGCCGGGCGCCGCCCGGAGTCACCTAGTGCAG,11100 fluorescence intensity (a.u.)
19,CACGGAGTCAAAAAGCCCGCCATGTCTTCCATTCCACAAACGGAGTCACCTAGTGCAG,8570 fluorescence intensity (a.u.)
20,TCTAATCAAACGACCATTCATGTATATTGCAATCCTCTGTCGGAGTCACCTAGTGCAG,9080 fluorescence intensity (a.u.)
21,GGCGAAGAGATTTTGGTGTGGTCATTGCTTTTGAGAAAGACGGAGTCACCTAGTGCAG,8090 fluorescence intensity (a.u.)

row,Sequence,binding signal
1,TAGCAACAAACTTGATGCATACATCATCTCCACTATTTTCCGGAGTCACCTAGTGCAG,8510 fluorescence intensity (a.u.)
2,CCGTTCTCCCACCAGTCCATTGCCGCTGGTGGCAATCTTCCGGAGTCACCTAGTGCAG,8090 fluorescence intensity (a.u.)
3,TCTCATACATCATCGTTCATACCTCTTCCTAACTAACCAGCGGAGTCACCTAGTGCAG,9550 fluorescence intensity (a.u.)
4,CGTCGTCTCCCTCGTCTCCGCCCACTGCTCCACCACACACCGGAGTCACCTAGTGCAG,8180 fluorescence intensity (a.u.)
5,CTCCACCTCCACCGTCGCTCGCTCCGGTTTCGTTGCTAGTCGGAGTCACCTAGTGCAG,8630 fluorescence intensity (a.u.)
6,AGCTACGGGTATACCTTCTTTCTCTGTCTTTCTTTGCTTCCGGAGTCACCTAGTGCAG,9000 fluorescence intensity (a.u.)
7,AATAGGGCATGAACCCCAGCCATTTCTCCTCATCCCACACCGGAGTCACCTAGTGCAG,63200 fluorescence intensity (a.u.)
8,TGGGGCTTTTTTTTCATCGGTTGTGCTTGACTCAGATACGCGGAGTCACCTAGTGCAG,15700 fluorescence intensity (a.u.)
9,CGGGAATTTATCGTTGGTCTCTCCATGACTCCGTTTATACCGGAGTCACCTAGTGCAG,8760 fluorescence intensity (a.u.)
10,TCGTTTTTCTCTTTAGTGTGTGTGTGTTGCGTTTTTGCAACGGAGTCACCTAGTGCAG,10300 fluorescence intensity (a.u.)
11,TTCCTACGCAGCCTCGACCGCGTGCCGTCCGGCCTGCACACGGAGTCACCTAGTGCAG,8460 fluorescence intensity (a.u.)
12,TGACTACACATATACAACGCCCATCCTCTGTCGATCTCCTCGGAGTCACCTAGTGCAG,8380 fluorescence intensity (a.u.)
13,ACGCCGCGCCTCCACATCCGCTCCACCCGCCGCCTCTCACCGGAGTCACCTAGTGCAG,9360 fluorescence intensity (a.u.)
14,CAAACCCCGCGCCGACGGGCGTCCTCCTCACCGACATTTCCGGAGTCACCTAGTGCAG,9700 fluorescence intensity (a.u.)
15,AAGACCGTTCCACCCACACGTCTCCACACGCTTAGGGCCTCGGAGTCACCTAGTGCAG,9150 fluorescence intensity (a.u.)
16,TGTTATTTTGTGTAGTTTGGTTGGTCTGTTTGCTTCTATTCGGAGTCACCTAGTGCAG,15200 fluorescence intensity (a.u.)
17,GAATCATTTAAACCTAATTGCGCCATGATTTGACAATGTACGGAGTCACCTAGTGCAG,9330 fluorescence intensity (a.u.)
18,TCCCCGGTTCTCGAGTCCTTTCCGTCCAATGCAGCCGCCTCGGAGTCACCTAGTGCAG,8340 fluorescence intensity (a.u.)
19,AACAAGCAGCATTCTAATTTGATCATCAACCAGCGAAATTCGGAGTCACCTAGTGCAG,8550 fluorescence intensity (a.u.)
20,CTCCAATGCCGTTCACATGATCTCACTCTCTCTCGCTCTCCGGAGTCACCTAGTGCAG,8070 fluorescence intensity (a.u.)
21,GGTCAAACATTAAATAAAAAGTCAACGGCGTCATACATTACGGAGTCACCTAGTGCAG,11400 fluorescence intensity (a.u.)

row,Sequence,binding signal
1,TTTCCGTCACATCGTTCCAATTTCAACCAAACTTTCAATTCGGAGTCACCTAGTGCAG,8590 fluorescence intensity (a.u.)
2,GGTGCGCGGGCGGGAGGTATCGGCGGTGGAGGCTGGTCGTCGGAGTCACCTAGTGCAG,10700 fluorescence intensity (a.u.)
3,GCTCTTGCAGTTTGATTGCTGCTCTCGTTGGTTAATTAACCGGAGTCACCTAGTGCAG,8680 fluorescence intensity (a.u.)
4,GCTGTACCAGTACTGACCGGGGTGGGGTGGCGGGAGCGGACGGAGTCACCTAGTGCAG,14600 fluorescence intensity (a.u.)
5,CCCAACGAATTTACGTACGTCTCGCTCTGTTGAGTCTTTACGGAGTCACCTAGTGCAG,9140 fluorescence intensity (a.u.)
6,CGCGGGTGACGCGAGAATATTCCGAGTTCATATCCTTCATCGGAGTCACCTAGTGCAG,9290 fluorescence intensity (a.u.)
7,AACTTATTCCTCCCTATATTCCGCTCTTTTTCTCCTTTCCCGGAGTCACCTAGTGCAG,8370 fluorescence intensity (a.u.)
8,ATAGTTGACCAATTTCGGCTAAAAAATTCCTACTACTATTCGGAGTCACCTAGTGCAG,10300 fluorescence intensity (a.u.)
9,AACTTCCGGTCTGTGCACACACGCGCGCGGCTAGCAGGCACGGAGTCACCTAGTGCAG,8360 fluorescence intensity (a.u.)
10,TGGTGCTGATCAAATTCTATTTCTAGACCTACTTAATTAACGGAGTCACCTAGTGCAG,8080 fluorescence intensity (a.u.)
11,ATTGTGGGTTTCCGTGTCCGACGTTTAAAATAAGACGAAGCGGAGTCACCTAGTGCAG,8170 fluorescence intensity (a.u.)
12,TAATTTTGAAGTTGACTTTGATGTTTTTTCCAACACAGATCGGAGTCACCTAGTGCAG,8360 fluorescence intensity (a.u.)
13,AATATTTTATATTTCTTTTTTTATATCACAGCCATCTCTTCGGAGTCACCTAGTGCAG,8660 ± 864 fluorescence intensity (a.u.)
14,GATTTACCATTGAATTTGTCACATTCTACAATATACCATCCGGAGTCACCTAGTGCAG,8310 fluorescence intensity (a.u.)
15,CATAGTTGCTACTCCCTATTAATACATCCCATCTCTTCCCCGGAGTCACCTAGTGCAG,10900 fluorescence intensity (a.u.)
16,TGTGTCATCCCAGTCTCTAAACTTGCAGATCACTCGTTTACGGAGTCACCTAGTGCAG,8640 fluorescence intensity (a.u.)
17,GCCATCCCGCTCGAACGCCGTCTTCTTGCTGCCCCAAAGGCGGAGTCACCTAGTGCAG,11000 fluorescence intensity (a.u.)
18,ACATAAGTTACTAACTGCTGCTTTTTTTTCTGAAGACTACCGGAGTCACCTAGTGCAG,8350 fluorescence intensity (a.u.)
19,AATGTATGACGCCGTTGACTTTTTGCCCAACGTTTGACCACGGAGTCACCTAGTGCAG,38700 fluorescence intensity (a.u.)
20,ACCGTTGCAATTACTTATTCGTTTCCTCCTTTCAAAATATCGGAGTCACCTAGTGCAG,8700 fluorescence intensity (a.u.)
21,ACAAATTTACCCAAAAAAAATTCGGTTTGTATTTTTTTTACGGAGTCACCTAGTGCAG,9100 fluorescence intensity (a.u.)

# Three entries from above, reformatted.
row | Sequence | binding signal
11 | ATTGTGGGTTTCCGTGTCCGACGTTTAAAATAAGACGAAGCGGAGTCACCTAGTGCAG | 8170 fluorescence intensity (a.u.)
12 | TAATTTTGAAGTTGACTTTGATGTTTTTTCCAACACAGATCGGAGTCACCTAGTGCAG | 8360 fluorescence intensity (a.u.)
13 | AATATTTTATATTTCTTTTTTTATATCACAGCCATCTCTTCGGAGTCACCTAGTGCAG | 8660 ± 864 fluorescence intensity (a.u.)

# The results go on:

row,Sequence,binding signal
1,ATCCCCATCTCGCCATAGACGCTAACCTATGTCCCTTCTCCGGAGTCACCTAGTGCAG,9800 fluorescence intensity (a.u.)
2,ACTTGTAAGTTGTGAATCTTATTTCTGCATATCGCATCAACGGAGTCACCTAGTGCAG,9230 fluorescence intensity (a.u.)
3,TGAGAAGCACCGCTCTCTCCTGCACCCGTCTCACGTGCACCGGAGTCACCTAGTGCAG,8300 fluorescence intensity (a.u.)
4,GTTTTGACTTTTTTTTCTAATAAAATTTCTTTTATGTTTGCGGAGTCACCTAGTGCAG,18600 fluorescence intensity (a.u.)
5,GTCAACCCTGCGGCTTCCAAATGACATAAGCAGAGAAACACGGAGTCACCTAGTGCAG,8220 fluorescence intensity (a.u.)
6,TAATAAAAATAGTGTCCTGTTTGCTTACCATTCATTATTCCGGAGTCACCTAGTGCAG,9540 fluorescence intensity (a.u.)
7,TTCCTATCATTTGATTCATTGTTAAATATATTTTTATGTACGGAGTCACCTAGTGCAG,8280 fluorescence intensity (a.u.)
8,GCGCCGCTTCTGATTGCTCCGCCTCGCGTTGATGCGCTGCCGGAGTCACCTAGTGCAG,8530 fluorescence intensity (a.u.)
9,GCCAACCCGCCGCCCACGCGGGCCTTCCTCGCCGGCGCCGCGGAGTCACCTAGTGCAG,8100 fluorescence intensity (a.u.)
10,ATGTCAACTGTAGTTTTTGTTTTCCTTTCTAGAGATTATTCGGAGTCACCTAGTGCAG,11500 fluorescence intensity (a.u.)
11,CTCTGATAGATTGCGACCTTCTTGTTGTTTAACAACGTTACGGAGTCACCTAGTGCAG,8060 fluorescence intensity (a.u.)
12,CTGTGCTTTCCATCCATCCACTCCCACGAACCGCACCTCACGGAGTCACCTAGTGCAG,10700 fluorescence intensity (a.u.)
13,CTCACCGCCGATCGATCGAGACGACGCATCACCCATCTCACGGAGTCACCTAGTGCAG,9080 fluorescence intensity (a.u.)
14,AAGATCATCACAATTCATCACTCACAACCACATCACATCCCGGAGTCACCTAGTGCAG,8020 fluorescence intensity (a.u.)
15,TGTTTCTTTCGTGCAATTCTTGCGCCGCGCAGGCGTTTGGCGGAGTCACCTAGTGCAG,8170 fluorescence intensity (a.u.)
16,CTGACATCTTCTCATCTTCTAGTTGTGTAATATTTTTGCACGGAGTCACCTAGTGCAG,9500 fluorescence intensity (a.u.)
17,GTTTCCATTTATCTGTTCGCAGTCAGTTCCAAGAAGTACCCGGAGTCACCTAGTGCAG,8340 fluorescence intensity (a.u.)
18,ACAAATTTGACTATTTTCAGTTAACCCTTACCCAACAATTCGGAGTCACCTAGTGCAG,9700 fluorescence intensity (a.u.)
19,AATTCAACGCACGTCTCTTGTCCTGCACTTCTGCTATGCCCGGAGTCACCTAGTGCAG,11000 fluorescence intensity (a.u.)
20,TCTTGTTGTATTTTCTTATATTCATGAATTGGCAACCACTCGGAGTCACCTAGTGCAG,10600 fluorescence intensity (a.u.)
21,TTTCTCTTCTCCGGCCGCCGTGTTCGTCGCCGCCATCCCACGGAGTCACCTAGTGCAG,12000 fluorescence intensity (a.u.)
